Experimental data: patent US6184230A, “Anti-helicobacter pylori pharmaceutical composition” (Yamanouchi Pharmaceutical Co., Ltd., priority 1997, dated 2001)
At least one structure is not confirmed: it was looked up by name or label, or the drawing left a doubt.

System: Helicobacter pylori ATCC 43504
Assay: In vivo antibacterial activity upon Helicobacter pylori in infected Mongolian gerbils, Example 5
Set-up: species or system Helicobacter pylori in Mongolian gerbils (MGS/Sea, male)
Details: oral, twice a day for 3 days, 10 mg/kg, 1 mg/kg or 0.1 mg/kg, started about 1 week after infection

## CCCCCC/C=C/Cc1c(C)c(=O)c2ccccc2n1O [1-hydroxy-2-(2-trans-nonenyl)-3-methyl-4(1H)-quinolone]
  number of viable cells in the stomach: reduces the number of viable cells in the stomach
